Source: the supplement of paper PMC10849652
This is one part of the list.

By UniProt entry, the sequences of proteins in these tests, tags left out. Where a name states a change or a piece, a line headed by the entry shows the natural chain unless it says otherwise.
UniProt Q14681: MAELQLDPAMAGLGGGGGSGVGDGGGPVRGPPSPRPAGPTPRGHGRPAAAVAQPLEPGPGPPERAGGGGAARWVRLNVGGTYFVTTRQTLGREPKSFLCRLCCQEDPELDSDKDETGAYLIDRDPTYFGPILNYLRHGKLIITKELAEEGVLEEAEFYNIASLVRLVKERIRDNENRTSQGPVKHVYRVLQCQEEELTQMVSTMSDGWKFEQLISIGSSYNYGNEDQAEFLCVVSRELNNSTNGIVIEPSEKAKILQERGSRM
UniProt Q9BY66, whole entry, looked up: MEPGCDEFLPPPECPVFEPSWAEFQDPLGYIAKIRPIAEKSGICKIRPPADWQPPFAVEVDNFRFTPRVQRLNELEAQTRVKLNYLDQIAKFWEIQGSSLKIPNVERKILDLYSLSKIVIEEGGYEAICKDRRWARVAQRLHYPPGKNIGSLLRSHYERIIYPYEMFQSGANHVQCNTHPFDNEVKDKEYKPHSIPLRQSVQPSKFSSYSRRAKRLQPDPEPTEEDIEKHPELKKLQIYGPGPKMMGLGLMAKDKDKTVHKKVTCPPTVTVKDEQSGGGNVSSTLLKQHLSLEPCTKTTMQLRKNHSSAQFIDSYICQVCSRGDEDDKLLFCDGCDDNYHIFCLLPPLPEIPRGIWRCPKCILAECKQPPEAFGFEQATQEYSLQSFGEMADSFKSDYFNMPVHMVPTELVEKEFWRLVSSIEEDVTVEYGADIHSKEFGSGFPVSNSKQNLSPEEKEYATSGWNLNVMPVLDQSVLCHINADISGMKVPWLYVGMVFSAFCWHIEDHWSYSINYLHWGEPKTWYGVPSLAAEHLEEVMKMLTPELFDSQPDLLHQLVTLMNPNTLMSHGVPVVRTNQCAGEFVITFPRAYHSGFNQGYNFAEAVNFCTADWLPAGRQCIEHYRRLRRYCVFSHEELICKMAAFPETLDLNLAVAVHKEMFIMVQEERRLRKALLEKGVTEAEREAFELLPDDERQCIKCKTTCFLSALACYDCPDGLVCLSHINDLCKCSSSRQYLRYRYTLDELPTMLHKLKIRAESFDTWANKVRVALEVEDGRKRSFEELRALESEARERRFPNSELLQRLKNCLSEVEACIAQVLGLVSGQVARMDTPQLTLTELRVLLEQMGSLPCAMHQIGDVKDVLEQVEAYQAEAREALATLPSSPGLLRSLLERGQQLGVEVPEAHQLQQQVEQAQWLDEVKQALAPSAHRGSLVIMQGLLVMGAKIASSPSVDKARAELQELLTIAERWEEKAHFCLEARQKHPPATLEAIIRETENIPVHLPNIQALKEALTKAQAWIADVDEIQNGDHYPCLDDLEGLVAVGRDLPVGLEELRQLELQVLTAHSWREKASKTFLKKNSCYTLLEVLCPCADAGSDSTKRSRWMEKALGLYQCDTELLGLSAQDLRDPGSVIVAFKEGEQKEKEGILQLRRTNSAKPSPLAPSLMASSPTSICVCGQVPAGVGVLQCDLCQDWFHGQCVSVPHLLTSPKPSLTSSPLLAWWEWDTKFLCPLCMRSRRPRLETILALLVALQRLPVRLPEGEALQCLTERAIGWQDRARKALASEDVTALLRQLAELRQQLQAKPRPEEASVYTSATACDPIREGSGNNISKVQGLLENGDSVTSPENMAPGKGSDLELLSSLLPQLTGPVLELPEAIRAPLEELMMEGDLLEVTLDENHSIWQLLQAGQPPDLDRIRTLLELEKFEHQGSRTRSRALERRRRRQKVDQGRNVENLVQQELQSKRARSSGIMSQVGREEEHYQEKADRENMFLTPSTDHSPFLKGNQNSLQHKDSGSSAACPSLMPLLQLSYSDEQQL
UniProt P50053: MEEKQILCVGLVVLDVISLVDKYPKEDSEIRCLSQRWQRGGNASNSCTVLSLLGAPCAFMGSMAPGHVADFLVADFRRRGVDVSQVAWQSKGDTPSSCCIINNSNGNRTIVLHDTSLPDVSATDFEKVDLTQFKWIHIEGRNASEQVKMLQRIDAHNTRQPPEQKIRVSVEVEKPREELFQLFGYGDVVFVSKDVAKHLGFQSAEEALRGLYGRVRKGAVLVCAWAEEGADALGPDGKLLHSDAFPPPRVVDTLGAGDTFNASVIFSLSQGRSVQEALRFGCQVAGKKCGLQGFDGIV
UniProt O94889: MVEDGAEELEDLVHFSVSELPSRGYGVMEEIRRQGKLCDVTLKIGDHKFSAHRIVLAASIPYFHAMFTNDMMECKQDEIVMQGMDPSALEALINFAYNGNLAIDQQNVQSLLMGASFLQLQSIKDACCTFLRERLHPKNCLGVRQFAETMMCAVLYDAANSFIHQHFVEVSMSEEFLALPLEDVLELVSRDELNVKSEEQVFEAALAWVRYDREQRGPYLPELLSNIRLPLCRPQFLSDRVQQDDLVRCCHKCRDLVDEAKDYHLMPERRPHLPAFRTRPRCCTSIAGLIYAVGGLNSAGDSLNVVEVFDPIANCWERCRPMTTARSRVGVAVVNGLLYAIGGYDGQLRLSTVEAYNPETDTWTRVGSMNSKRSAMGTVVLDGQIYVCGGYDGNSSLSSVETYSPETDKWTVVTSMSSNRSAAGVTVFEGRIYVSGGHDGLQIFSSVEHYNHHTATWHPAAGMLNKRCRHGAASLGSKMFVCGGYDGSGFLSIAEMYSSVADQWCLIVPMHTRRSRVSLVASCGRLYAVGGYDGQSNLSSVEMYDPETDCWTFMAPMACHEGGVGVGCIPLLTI
UniProt Q96SI1: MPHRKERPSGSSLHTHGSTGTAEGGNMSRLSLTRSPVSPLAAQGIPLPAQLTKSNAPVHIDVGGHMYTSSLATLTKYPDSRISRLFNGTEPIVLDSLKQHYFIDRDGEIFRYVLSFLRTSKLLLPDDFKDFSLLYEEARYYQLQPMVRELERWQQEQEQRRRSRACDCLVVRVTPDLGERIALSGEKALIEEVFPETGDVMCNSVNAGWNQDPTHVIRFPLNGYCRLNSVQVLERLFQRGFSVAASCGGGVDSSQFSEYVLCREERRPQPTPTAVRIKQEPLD
UniProt O00629, whole entry, looked up: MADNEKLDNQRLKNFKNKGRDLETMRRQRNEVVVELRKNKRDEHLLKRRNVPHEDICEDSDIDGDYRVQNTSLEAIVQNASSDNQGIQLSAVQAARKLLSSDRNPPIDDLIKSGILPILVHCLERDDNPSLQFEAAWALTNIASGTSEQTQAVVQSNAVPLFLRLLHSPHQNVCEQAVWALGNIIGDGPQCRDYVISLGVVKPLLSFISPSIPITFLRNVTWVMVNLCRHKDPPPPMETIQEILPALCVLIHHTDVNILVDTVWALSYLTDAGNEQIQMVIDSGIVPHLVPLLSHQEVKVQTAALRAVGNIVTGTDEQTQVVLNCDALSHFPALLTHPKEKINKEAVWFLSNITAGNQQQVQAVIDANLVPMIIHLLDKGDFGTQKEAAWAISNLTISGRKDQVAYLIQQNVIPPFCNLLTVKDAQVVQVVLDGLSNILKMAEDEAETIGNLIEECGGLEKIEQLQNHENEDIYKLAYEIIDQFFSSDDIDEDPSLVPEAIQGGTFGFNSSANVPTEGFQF
UniProt Q14145, whole entry, looked up: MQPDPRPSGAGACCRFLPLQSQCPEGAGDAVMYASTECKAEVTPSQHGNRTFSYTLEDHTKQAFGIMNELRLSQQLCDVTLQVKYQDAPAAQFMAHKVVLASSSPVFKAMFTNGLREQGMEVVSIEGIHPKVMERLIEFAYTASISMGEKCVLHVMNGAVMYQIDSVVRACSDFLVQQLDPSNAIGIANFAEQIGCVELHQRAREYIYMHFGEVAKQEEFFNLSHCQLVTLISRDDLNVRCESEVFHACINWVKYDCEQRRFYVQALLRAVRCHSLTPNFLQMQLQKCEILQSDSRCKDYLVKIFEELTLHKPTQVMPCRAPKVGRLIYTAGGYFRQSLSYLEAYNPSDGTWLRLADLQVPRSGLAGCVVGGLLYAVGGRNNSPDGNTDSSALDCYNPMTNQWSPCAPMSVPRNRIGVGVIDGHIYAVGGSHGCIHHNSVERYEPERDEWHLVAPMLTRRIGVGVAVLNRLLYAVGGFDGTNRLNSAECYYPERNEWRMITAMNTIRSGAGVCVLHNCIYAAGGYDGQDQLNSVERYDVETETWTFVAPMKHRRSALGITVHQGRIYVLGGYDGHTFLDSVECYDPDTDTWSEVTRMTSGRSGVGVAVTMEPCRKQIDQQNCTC
UniProt Q9P0J7: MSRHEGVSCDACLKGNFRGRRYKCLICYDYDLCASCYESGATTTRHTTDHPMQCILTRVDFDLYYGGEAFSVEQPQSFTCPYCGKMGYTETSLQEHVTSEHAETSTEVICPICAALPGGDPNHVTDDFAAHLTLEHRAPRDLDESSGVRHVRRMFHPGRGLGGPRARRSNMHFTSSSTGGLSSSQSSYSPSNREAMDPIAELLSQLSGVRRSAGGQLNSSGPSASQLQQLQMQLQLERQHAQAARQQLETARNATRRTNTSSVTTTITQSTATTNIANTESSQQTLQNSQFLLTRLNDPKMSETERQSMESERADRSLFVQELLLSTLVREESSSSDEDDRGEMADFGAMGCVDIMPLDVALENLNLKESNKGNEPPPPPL
UniProt Q12840: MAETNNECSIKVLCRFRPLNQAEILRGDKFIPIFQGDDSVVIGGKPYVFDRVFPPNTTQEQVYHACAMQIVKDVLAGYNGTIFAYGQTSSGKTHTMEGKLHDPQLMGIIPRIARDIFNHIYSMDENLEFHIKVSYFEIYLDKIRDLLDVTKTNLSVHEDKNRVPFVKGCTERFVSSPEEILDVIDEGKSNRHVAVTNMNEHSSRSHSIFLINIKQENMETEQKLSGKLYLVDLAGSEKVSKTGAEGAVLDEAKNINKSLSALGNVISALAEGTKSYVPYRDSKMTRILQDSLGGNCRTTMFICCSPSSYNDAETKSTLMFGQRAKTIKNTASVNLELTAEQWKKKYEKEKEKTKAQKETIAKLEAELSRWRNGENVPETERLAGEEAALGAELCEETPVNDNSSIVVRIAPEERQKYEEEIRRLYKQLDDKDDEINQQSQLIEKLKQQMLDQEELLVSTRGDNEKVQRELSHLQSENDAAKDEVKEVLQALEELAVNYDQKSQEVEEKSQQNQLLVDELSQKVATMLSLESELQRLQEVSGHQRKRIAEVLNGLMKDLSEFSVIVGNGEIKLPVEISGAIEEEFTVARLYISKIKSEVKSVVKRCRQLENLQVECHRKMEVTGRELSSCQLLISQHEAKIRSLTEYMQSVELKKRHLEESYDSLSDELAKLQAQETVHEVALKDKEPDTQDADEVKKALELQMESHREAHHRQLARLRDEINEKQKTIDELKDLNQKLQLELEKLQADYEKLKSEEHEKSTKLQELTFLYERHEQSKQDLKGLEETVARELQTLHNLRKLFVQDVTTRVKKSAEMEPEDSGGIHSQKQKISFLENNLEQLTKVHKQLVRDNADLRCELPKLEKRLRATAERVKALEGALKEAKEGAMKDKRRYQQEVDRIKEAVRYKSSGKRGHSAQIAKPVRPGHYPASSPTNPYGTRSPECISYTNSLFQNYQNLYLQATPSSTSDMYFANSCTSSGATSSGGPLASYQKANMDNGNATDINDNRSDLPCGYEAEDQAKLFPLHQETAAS
UniProt Q9UK76: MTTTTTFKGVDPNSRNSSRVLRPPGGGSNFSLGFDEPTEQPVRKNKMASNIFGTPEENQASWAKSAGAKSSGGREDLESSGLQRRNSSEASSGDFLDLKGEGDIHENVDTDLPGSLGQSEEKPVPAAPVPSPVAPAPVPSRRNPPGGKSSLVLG
UniProt P17275: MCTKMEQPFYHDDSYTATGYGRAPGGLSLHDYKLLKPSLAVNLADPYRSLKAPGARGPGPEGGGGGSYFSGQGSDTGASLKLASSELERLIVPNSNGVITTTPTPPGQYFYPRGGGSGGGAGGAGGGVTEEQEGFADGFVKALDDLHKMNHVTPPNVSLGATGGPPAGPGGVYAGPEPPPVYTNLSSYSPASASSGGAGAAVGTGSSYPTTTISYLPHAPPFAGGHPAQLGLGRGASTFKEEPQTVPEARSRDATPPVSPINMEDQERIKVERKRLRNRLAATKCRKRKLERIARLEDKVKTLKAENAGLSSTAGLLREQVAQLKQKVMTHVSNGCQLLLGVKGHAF

Columns and labels:
Assay in all cases: log2 fold change, soluble protein after heating vs DMSO (PISA); higher = thermal stabilisation; K562 cells, 10 uM, 30 min; active = over 0.2 and 3.5 SD of the protein, either way, in both replicates (recomputed)
[1] = compound: NC(=O)Nc1cc(-c2cccc(F)c2)sc1C(=O)N[C@H]1CCCNC1
Outline: (§1)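 K562 cells at 2×10^6 cells/mL were given 10 μM compound for 30 min. Aliquots then went through 3 min of heating across 48°C-58°C, were pooled, and were extracted in PBS with 0.5% NP-40 at 4°C, and the supernatant after 21,000xg for 90 min was quantified by TMTpro 16plex LC-MS/MS with channel sums equalised. Thermal stability relative to control samples, from duplicates, is given as log2 fold change.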

[2] = compound: NC(=O)c1cnc(N[C@@H]2CCCC[C@@H]2N)nc1Nc1cccc(-n2nccn2)c1
Outline: as §1

[3] = compound: NC1(c2ccc(-c3nc4ccn5c(=O)[nH]nc5c4cc3-c3ccccc3)cc2)CCC1
Outline: as §1

[4] = compound: NCC(=O)Nc1ccc(-n2nc(C(F)(F)F)cc2-c2ccc3c(ccc4ccccc43)c2)cc1
Outline: as §1

entinostat = compound: Nc1ccccc1NC(=O)c1ccc(CNC(=O)OCc2cccnc2)cc1 [entinostat]
Outline: as §1

vorinostat = compound: O=C(CCCCCCC(=O)Nc1ccccc1)NO [vorinostat]
Outline: as §1

citarinostat = compound: O=C(CCCCCCNC(=O)c1cnc(N(c2ccccc2)c2ccccc2Cl)nc1)NO [citarinostat]
Outline: as §1

silmitasertib = compound: O=C(O)c1ccc2c(c1)nc(Nc1cccc(Cl)c1)c1ccncc12 [silmitasertib]
Outline: as §1

[5] = compound: O=C1NC(=O)C(c2cnc3ccccn23)=C1c1cn2c3c(cc(F)cc13)CN(C(=O)N1CCCCC1)CC2
Outline: as §1

[6] = compound: c1cc(OCCN2CCCCC2)cc(-c2n[nH]c3ccc(-c4nnc[nH]4)cc23)c1
Outline: as §1

Measured: log2 fold change

KCTD2 (UniProt Q14681)
inactive: [1] -0.524 | [2] -0.195 | [3] 0.032 | [4] -0.119 | entinostat -0.35 | vorinostat -0.543 | citarinostat -0.274 | silmitasertib 0.119 | [5] -0.121 | [6] -0.204

KDM5D isoform 3 (UniProt Q9BY66)
inactive: [1] -0.038 | [2] -0.012 | [3] -0.134 | [4] -0.025 | entinostat 0.135 | vorinostat 0.006 | citarinostat 0.198 | silmitasertib 0.176 | [5] 0 | [6] -0.096

KBTBD8 (UniProt Q8NFY9)
inactive: [1] 0.022 | [2] 0.075 | [3] -0.116 | [4] -0.016 | entinostat 0.108 | vorinostat 0.17 | citarinostat 0.05 | silmitasertib 0.187 | [5] 0.153 | [6] 0.007

Quoted from the listing (two entries):
KDM5D isoform 3 (UniProt Q9BY66)
inactive: [1] -0.038 | [2] -0.012 | [3] -0.134 | [4] -0.025 | entinostat 0.135 | vorinostat 0.006 | citarinostat 0.198 | silmitasertib 0.176 | [5] 0 | [6] -0.096

KBTBD8 (UniProt Q8NFY9)
inactive: [1] 0.022 | [2] 0.075 | [3] -0.116 | [4] -0.016 | entinostat 0.108 | vorinostat 0.17 | citarinostat 0.05 | silmitasertib 0.187 | [5] 0.153 | [6] 0.007

Continued:

KIF13A (UniProt Q9H1H9)
inactive: [1] -0.049 | [2] -0.008 | [3] -0.078 | [4] -0.064 | entinostat 0.04 | vorinostat -0.178 | citarinostat -0.041 | silmitasertib 0 | [5] -0.005 | [6] -0.061

JMJD1C (UniProt Q15652)
inactive: [1] -0.044 | [2] -0.041 | [3] -0.006 | [4] -0.064 | entinostat 0.036 | vorinostat 0.088 | citarinostat 0.104 | silmitasertib 0.134 | [5] -0.025 | [6] -0.018

KHK isoform 2 (UniProt P50053)
inactive: [1] -0.012 | [2] 0.058 | [3] -0.081 | [4] -0.004 | entinostat -0.06 | vorinostat -0.017 | citarinostat 0.045 | silmitasertib 0.01 | [5] -0.087 | [6] 0.004

KIAA1143 (UniProt Q96AT1)
inactive: [1] -0.094 | [2] -0.139 | [3] 0.026 | [4] -0.006 | entinostat -0.079 | vorinostat 0 | citarinostat -0.053 | silmitasertib 0.007 | [5] -0.275 | [6] -0.005

KIAA1522 isoform 2 (UniProt Q9P206)
inactive: [1] -0.099 | [2] -0.203 | [3] 0.116 | [4] 0.117 | entinostat 0.087 | vorinostat 0.03 | citarinostat 0 | silmitasertib 0.036 | [5] 0.063 | [6] -0.128

KLHL18 (UniProt O94889)
inactive: [1] 0.132 | [2] -0.034 | [3] -0.145 | [4] -0.123 | entinostat -0.045 | vorinostat 0.137 | citarinostat 0.123 | silmitasertib -0.029 | [5] -0.014 | [6] -0.022

KCTD15 (UniProt Q96SI1)
inactive: [1] -0.093 | [2] -0.045 | [3] -0.021 | [4] 0.022 | entinostat -0.045 | vorinostat -0.045 | citarinostat 0.021 | silmitasertib -0.028 | [5] 0.028 | [6] 0.002

KBTBD2 (UniProt Q8IY47)
inactive: [1] 0.021 | [2] 0.022 | [3] -0.135 | [4] -0.027 | entinostat -0.041 | vorinostat 0.006 | citarinostat 0.051 | silmitasertib 0.018 | [5] -0.102 | [6] -0.027

KIDINS220 (UniProt Q9ULH0)
inactive: [1] -0.036 | [2] 0.021 | [3] -0.001 | [4] -0.003 | entinostat -0.013 | vorinostat -0.038 | citarinostat -0.018 | silmitasertib -0.008 | [5] 0 | [6] -0.033

KPNA4 (UniProt O00629)
inactive: [1] -0.06 | [2] -0.054 | [3] -0.072 | [4] -0.053 | entinostat -0.01 | vorinostat 0.019 | citarinostat 0.051 | silmitasertib 0.065 | [5] -0.017 | [6] -0.111

KEAP1 (UniProt Q14145)
inactive: [1] 0.007 | [2] -0.027 | [3] -0.076 | [4] -0.034 | entinostat 0.051 | vorinostat 0.156 | citarinostat -0.005 | silmitasertib 0.122 | [5] 0.143 | [6] -0.055

JAGN1 (UniProt Q8N5M9)
inactive: [1] 0.013 | [2] -0.032 | [3] 0.015 | [4] -0.062 | entinostat 0.026 | vorinostat -0.207 | citarinostat -0.022 | silmitasertib 0.038 | [5] -0.044 | [6] -0.027

KATNA1 (UniProt O75449)
inactive: [1] 0.021 | [2] -0.02 | [3] -0.043 | [4] -0.016 | entinostat 0.012 | vorinostat -0.041 | citarinostat -0.062 | silmitasertib -0.033 | [5] 0.026 | [6] -0.073

KCTD5 (UniProt Q9NXV2)
inactive: [1] -0.181 | [2] -0.09 | [3] 0.088 | [4] -0.009 | entinostat -0.05 | vorinostat -0.113 | citarinostat 0.033 | silmitasertib 0.019 | [5] -0.091 | [6] -0.134

KPNA6 (UniProt O60684)
inactive: [1] 0.01 | [2] -0.007 | [3] -0.06 | [4] -0.002 | entinostat 0.051 | vorinostat 0.061 | citarinostat 0.047 | silmitasertib 0.219 | [5] 0.067 | [6] -0.159

KLHDC4 (UniProt Q8TBB5)
inactive: [1] 0.013 | [2] -0.006 | [3] 0.224 | [4] -0.105 | entinostat -0.055 | vorinostat -0.014 | citarinostat 0.042 | silmitasertib -0.003 | [5] 0.125 | [6] -0.036

KCMF1 (UniProt Q9P0J7)
inactive: [1] 0.093 | [2] 0.06 | [3] -0.077 | [4] 0.07 | entinostat 0.121 | vorinostat 0.122 | citarinostat 0.034 | silmitasertib 0.047 | [5] 0.002 | [6] -0.049

KCTD3 (UniProt Q9Y597)
inactive: [1] -0.064 | [2] -0.027 | [3] 0.003 | [4] -0.037 | entinostat -0.117 | vorinostat 0 | citarinostat -0.06 | silmitasertib 0.001 | [5] 0.007 | [6] -0.052

KRTCAP2 isoform 2 (UniProt Q8N6L1)
inactive: [1] 0.001 | [2] -0.045 | [3] -0.044 | [4] 0.047 | entinostat -0.111 | vorinostat 0.045 | citarinostat 0.015 | silmitasertib 0.037 | [5] 0.05 | [6] -0.114

KLC4 isoform 3 (UniProt Q9NSK0)
inactive: [1] -0.031 | [2] 0.028 | [3] -0.06 | [4] -0.03 | entinostat 0.08 | vorinostat -0.011 | citarinostat 0.086 | silmitasertib 0.063 | [5] -0.002 | [6] 0.036

JMJD6 isoform 3 (UniProt Q6NYC1)
inactive: [1] 0.01 | [2] -0.057 | [3] -0.068 | [4] -0.019 | entinostat 0.039 | vorinostat 0.048 | citarinostat 0.064 | silmitasertib 0.081 | [5] -0.061 | [6] -0.014

KMT2D isoform 3 (UniProt O14686)
inactive: [1] -0.004 | [2] 0.015 | [3] 0.028 | [4] -0.001 | entinostat -0.03 | vorinostat -0.089 | citarinostat -0.193 | silmitasertib 0.121 | [5] 0.105 | [6] -0.237

KLC2 (UniProt Q9H0B6)
inactive: [1] -0.149 | [2] -0.084 | [3] -0.134 | [4] -0.044 | entinostat 0.031 | vorinostat 0.044 | citarinostat 0.061 | silmitasertib 0.063 | [5] 0.007 | [6] -0.082

KIF5A (UniProt Q12840)
inactive: [1] -0.073 | [2] -0.019 | [3] -0.067 | [4] -0.006 | entinostat -0.005 | vorinostat 0.026 | citarinostat -0.008 | silmitasertib 0.025 | [5] 0.007 | [6] -0.038

KIF3B (UniProt O15066)
inactive: [1] -0.016 | [2] -0.029 | [3] -0.091 | [4] -0.128 | entinostat -0.016 | vorinostat -0.179 | citarinostat 0.053 | silmitasertib -0.086 | [5] -0.112 | [6] 0.215

JPT1 (UniProt Q9UK76)
inactive: [1] 0.047 | [2] 0.059 | [3] 0.101 | [4] 0.038 | entinostat -0.015 | vorinostat -0.041 | citarinostat 0.029 | silmitasertib -0.02 | [5] 0.011 | [6] 0.032

JUNB (UniProt P17275)
inactive: [1] -0.146 | [2] -0.282 | [3] 0.218 | [4] -0.051 | entinostat -0.086 | vorinostat 0.058 | citarinostat -0.069 | silmitasertib 0.096 | [5] -0.027 | [6] 0.017
